Measurements reported in PubChem BioAssay AID1259298 (Sanger Institute, 2017)

Test: 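Kinases whose loss strengthens killing by BYL719, cetuximab or trametinib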 (primary screen)
Cell system: HT55 human colorectal cancer cell line
Knock-down reagent: siRNA pool against human genes
Treatment: anchor drug BYL719 1 µM, cetuximab 5 µg/ml or trametinib 10 nM, or DMSO vehicle alone
Measured: 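Replicate-averaged viability versus wells of non-targeting pool; knock-down-only robust z-score; per-drug synergy score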
Direction: robust z-score, knock-down alone: higher = more cells remaining; low means essential gene; viability vs control pool, no drug: higher = more viable cells
Hit rule: 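Essential when the robust z-score for knock-down alone with DMSO is below -3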
Meaning of the calls: active = essential (knock-down alone); inactive = no change alone
This is an unselected part of 794 reagents tested. 20 of them (2.5%) were called active. 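Calls rest only on the knock-down-alone score; drug synergy scores played no part in them.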 Entries without a mark were called inactive. No viability above 1 is reported: the scale is capped. Not all columns of the deposit are shown. No sequences are given here. Not given: the amount of reagent, the time to read-out.

MSR1
- robust z-score, knock-down alone: 0.574
- viability vs control pool, no drug (fraction): 1

PFKL
- robust z-score, knock-down alone: 0.58
- viability vs control pool, no drug (fraction): 1

RBM10
- robust z-score, knock-down alone: -0.766
- viability vs control pool, no drug (fraction): 0.895

KRAS
- robust z-score, knock-down alone: 0.58
- viability vs control pool, no drug (fraction): 1

PANK2
- robust z-score, knock-down alone: -0.753
- viability vs control pool, no drug (fraction): 0.896

ARID1A
- robust z-score, knock-down alone: -1.74
- viability vs control pool, no drug (fraction): 0.819

PRKCB
- robust z-score, knock-down alone: 0.58
- viability vs control pool, no drug (fraction): 1

PRKAR2B
- robust z-score, knock-down alone: -4.54 (active)
- viability vs control pool, no drug (fraction): 0.599

CDKL2
- robust z-score, knock-down alone: -0.501
- viability vs control pool, no drug (fraction): 0.915

PRKD2
- robust z-score, knock-down alone: 0.58
- viability vs control pool, no drug (fraction): 1

FN1
- robust z-score, knock-down alone: 0.513
- viability vs control pool, no drug (fraction): 0.995

CAMK4
- robust z-score, knock-down alone: 0.58
- viability vs control pool, no drug (fraction): 1

FGFR1
- robust z-score, knock-down alone: 0.58
- viability vs control pool, no drug (fraction): 1

GSK3A
- robust z-score, knock-down alone: -0.0837
- viability vs control pool, no drug (fraction): 0.948

DGKQ
- robust z-score, knock-down alone: -0.225
- viability vs control pool, no drug (fraction): 0.937

ELF3
- robust z-score, knock-down alone: 0.58
- viability vs control pool, no drug (fraction): 1

ETNK2
- robust z-score, knock-down alone: -0.2
- viability vs control pool, no drug (fraction): 0.939

NEK5
- robust z-score, knock-down alone: 0.58
- viability vs control pool, no drug (fraction): 1

ADK
- robust z-score, knock-down alone: 0.58
- viability vs control pool, no drug (fraction): 1

CAD
- robust z-score, knock-down alone: 0.58
- viability vs control pool, no drug (fraction): 1

NTRK3
- robust z-score, knock-down alone: 0.58
- viability vs control pool, no drug (fraction): 1

TCF7L2
- robust z-score, knock-down alone: 0.58
- viability vs control pool, no drug (fraction): 1

Limited to “viability vs control pool, no drug (fraction)” (2 entries from above):
ELF3	1
ETNK2	0.939
